Assay results reported in patent publication US11415571B2, “Large scale organoid analysis” (Tempus Labs, Inc., priority 2019, dated 2022).
At least one compound was matched to its structure with a doubt left.

What was measured:
gastric cancer TO line = assay: 351-compound TO drug screen, RCA network generated viability; assay type: cell-based, human; details: high ERBB2 (HER2) amplification in the gastric TO
[1] = tested on: colorectal cancer tumor organoid line; assay: high throughput tumor organoid drug screen, per-organoid viability histogram; assay type: cell-based, human; details: caspase 3/7 readout; 10,000 nM dose
Procedure: TOs were dissociated as described above and resuspended in a 30:70% mix of GFR Matrigel:growth media at a concentration of 100 cells/μl. The solution was added to 384-well assay plates (Corning) at 20 μl per well for a final concentration of 2,000 cells per well. Assay plates were covered with a Breathe-Easy sealing membrane (Sigma Aldrich) to prevent evaporation. TOs were grown for 72 hours before drug addition. Drugs were prepared in growth media with 2.5 μM Caspase-3/7 Green Apoptosis Assay Reagent (Essen Bioscience). Serial dilutions of each molecule were prepared in 384-well polystyrene plates (Nunc). […]
Prior to imaging, TOs were incubated with 4 μM Hoechst 33342 (Fisher Scientific) and 300 nM TO-PRO-3 Iodide (642/661) (Invitrogen) for 1.5-2 hours. […] Images were acquired as 4×15 μm Z-stacks and the 2D projections were analyzed to assess cell viability. Confocal images were analyzed using the MetaXpress software (Molecular Devices) custom module editor feature to design an analysis module that identified TOs by clusters of Hoechst 33342 staining, individual cells by Hoechst 33342 staining, and dead/dying cells by either TO-PRO-3 or Caspase-3/7 staining. […]
The percentage of viable cells per organoid was calculated based on the image analysis described above. […] AUC was calculated using the computeAUC function using settings for “actual” AUC of the R Package PharmacoGx (v1.17.1). […]

SMILES | distribution of response among the TO populations (gastric cancer TO line) | organoids of the line that are resistant to the drug [1]
CN(C)C/C=C/C(=O)Nc1cc2c(Nc3ccc(F)c(Cl)c3)ncnc2cc1O[C@H]1CCOC1 [Afatinib] | a subset of the organoid population exhibiting resistance | 
CC(=O)Nc1cccc(-n2c(=O)n(C3CC3)c(=O)c3c(Nc4ccc(I)cc4F)n(C)c(=O)c(C)c32)c1 [Trametinib] |  | presence of a small proportion
